Experimental data taken from patent US7416724B2, “Diagnosis and treatment of diseases arising from defects in the tuberous sclerosis pathway” (The Regents of the University of Michigan, priority 2002, dated 2008).
Entries after “also recorded” stand apart in the source; their conditions may differ. Read-outs that look alike come from different tables or passages of the source. At least one compound was matched to its structure with a doubt left.

Experiments:
TSC2 [1] = experiment: TSC2 mobility shift on SDS-PAGE; type: cell-based; settings: FIG. 3a
Protocol: HEK293 cells were seeded and maintained in Dulbecco's modified Eagle's medium (DMEM) containing 10% fetal bovine serum (FBS). Transfection was performed in serum-free conditions using Lipofectamine reagent (Invitrogen, Carlsbad, Calif.) in accordance with the manufacturer's instructions. In brief, 4 h after transfection, the cells were recovered in DMEM containing 10% FBS for 16 h and then starved for […]. Cells were then lysed in lysis buffer (10 mM Tris-HCl at pH 7.5, 100 mM sodium chloride, 1% NP-40, 1% Triton X-100, 50 mM sodium fluoride, 2 mM EDTA, 1 mM phenyl methylsulphonyl fluoride, 10 g ml^−1 leupeptin and 10 g ml^−1 aprotinine) and immunoprecipitated with the indicated antibodies and protein G-Sepharose beads. Immunocomplexes were analyzed by SDS-polyacrylamide gel electrophoresis (PAGE).

TSC2 [2] = experiment: In vivo 32P-labelling and two-dimensional phosphopeptide mapping of TSC2; type: cell-based, rat; settings: insulin (400 nM), LY294002 or rapamycin (20 nM), FIG. 3c
Protocol: HEK293 cells were cotransfected with HA-tagged TSC2, Myc-tagged TSC1 and the indicated plasmids. Cells were phosphate- and serum-starved for 4 h before incubation with 0.25 mCi ml^−1 32P-orthophosphate (ICN) for 4 h.
Cells were washed once with ice-cold PBS and lysed. HA-tagged TSC2 was immunoprecipitated, resolved by SDS-PAGE and transferred to a PVDF membrane. Phosphorylated TSC2 was visualized by autoradiography and phosphopeptide mapping was then performed. In brief, the phosphorylated TSC2 bands were excised, fixed in methanol and incubated in 500 1 of 0.5% polyvinylpyrrolidone-40 dissolved in 100 mM acetic acid for 30 min at 37° C. The sample were then digested with 20 g of TPCK-treated trypsin (Sigma) at 37° C. in 75 mM ammonium bicarbonate buffer at pH 8.0 containing 5% acetonitrile. After digestion, samples were dried under vacuum and suspended in 10 1 of water. Samples were spotted onto a cellulose plate and first dimensional electrophoresis was performed using 1% ammonium bicarbonate buffer at pH 8.9. The plates were separated by chromatography in the second dimension in chromatography buffer (n-butanol:pyridine:acetic acid:water; 20:24:6:30). The plates were dried and phosphopeptides were visualized by autoradiography.

S6K-dC104 [3] = experiment: Thr 389 phosphorylation and kinase activity of rapamycin-resistant mutant S6K-dC104; type: cell-based; settings: FIG. 7a
Protocol: For the S6K assays, HEK293 cells grown in six-well plates were transfected with 10-20 ng HA-S6K constructs, with or without various plasmids, as indicated in the figures. HA-S6K was immunoprecipitated from serum-starved cells with an anti-HA antibody and analyzed by in vitro kinase assay using purified GST-S6 as a substrate (Pearson et al., EMBO J. 14, 5279-5287 (1995)).

S6K-dC104 [4] = settings: cited from earlier work; for phosphorylation of Thr 389 in S6K-dC104: Dennis et al.
4EBP1 = settings: nutrient stimulation; cited from earlier work
S6K [5] = experiment: Phosphorylation of S6K, immunoblot with anti-phospho S6K antibody; type: cell-based; settings: TSC2 expression knocked down, FIG. 10B
Source text: Anti-S6K, anti-phospho S6K, anti-mTOR, anti-phospho mTOR, anti-Akt, anti-phospho Akt, antiphospho 4EBP-1 and anti-phospho ERK antibodies were from Cell Signalling Inc. Anti-TSC2 and anti-Myc antibodies were from Santa Cruz Biotechnology (Santa Cruz, Calif.). Anti-HA and anti-Flag antibodies were from Covance (Princeton, N.J.) and Sigma (St Louis, Mo.), respectively. HA-tagged S6K1 (II) and GST-S6 constructs were obtained from J. Blenis (Columbia Univ., NY, N.Y.). […] All other DNA constructs, including H-RasV12, PTEN, PTEN-CS, Akt, Akt-KM, Flag-ubiquitin and Flag-4E-BP1, were laboratory stock. All mutant constructs of TSC2 were created by PCR mutagenesis and verified by DNA sequencing. LY294002 was from Calbiochem (San Diego, Calif.); phosphatase was from New England Biolabs (Beverly, Mass.). MG132 was from the Peptide Institute. Cycloheximide and wortmannin were from Sigma. D-PBS was from Gibco. Rapamycin was from Cell Signalling.
HEK293 cells were seeded and maintained in Dulbecco's modified Eagle's medium (DMEM) containing 10% fetal bovine serum (FBS). Transfection was performed in serum-free conditions using Lipofectamine reagent (Invitrogen, Carlsbad, Calif.) in accordance with the manufacturer's instructions. […] Immunocomplexes were analyzed by SDS-polyacrylamide gel electrophoresis (PAGE).

[6] = system: LEF (TSC2-/- epithelial) cells; experiment: Cell death / apoptosis of LEF cells; type: cell-based; settings: unpublished data
tumor = settings: Podsypanina et al., 2001; cited from earlier work
[7] = system: acetyl CoA carboxylase (ACC) and eukaryote elongation factor 2 (eEF2); experiment: Phosphorylation of AMPK substrates ACC and eEF2; type: cell-based; settings: FIG. 10D, E
HEK293 cells = experiment: Cell size of HEK293 cells; type: cell-based; settings: 12.5 mM 2-DG, TSC2 RNAi, or 20 nM rapamycin for 72 hours, FIG. 14D
S6K [8] = settings: nutrient stimulation; cited from earlier work

Compound	mobility of TSC2 (TSC2 [1])	phosphorylation of TSC2 phosphopeptides (TSC2 [2])	phosphorylation of Thr 389 in S6K-dC104 (S6K-dC104 [3])	phosphorylation of Thr 389 in S6K-dC104 (S6K-dC104 [4])	nutrient-induced phosphorylation of 4E-BP1 (4EBP1)	S6K phosphorylation (S6K [5])	glucose deprivation-induced apoptosis [6]	tumor growth (tumor)	2-DG-induced phosphorylation of ACC and eEF2 [7]	cell size (HEK293 cells)	nutrient-induced phosphorylation of S6K (S6K [8])	kinase activity of S6K-dC104 (S6K-dC104 [4]; Weng et al., Schalm et al.)
O=c1cc(N2CCOCC2)oc2c(-c3ccccc3)cccc12 [LY294002]	increased the mobility	decreased phosphorylation	inhibited	inhibited	–	–	–	–	–	–	–	–
CO[C@H]1C[C@@H]2CC[C@@H](C)[C@@](O)(O2)C(=O)C(=O)N2CCCC[C@H]2C(=O)O[C@H]([C@H](C)C[C@@H]2CC[C@@H](O)[C@H](OC)C2)CC(=O)[C@H](C)/C=C(\C)[C@@H](O)[C@@H](OC)C(=O)[C@H](C)C[C@H](C)/C=C/C=C/C=C/1C [rapamycin]	–	had no effect	but not by rapamycin	but not by rapamycin	blocked	blocked S6K phosphorylation; also recorded: rapamycin-induced dephosphorylation	significantly protects	inhibits tumor growth	Neither TSC2 RNAi nor rapamycin affected; also recorded: has little effect	decreased cell size	blocked	inhibited
COC[C@H]1OC(=O)c2coc3c2[C@@]1(C)C1=C(C3=O)[C@@H]2CCC(=O)[C@@]2(C)C[C@H]1OC(C)=O [wortmannin]	–	–	inhibited	–	–	–	–	–	–	–	–	–
